Source: PubChem BioAssay AID2685 (National Center for Advancing Translational Sciences (NCATS), 2010)
The list shows a part of the results. The main result of the screen is listed elsewhere. These columns were measured beside it and carry no call. Compounds called inactive in the main read-out are mostly missing here. The note in brackets gives the kind of curve behind each potency; many fits are weak.

Experiment: qHTS Assay for Lipid Storage Modulators in Drosophila S3 Cells;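 on cell number change: cells counted by Cell Tracker Red CMTPX staining in the red channel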
Conditions: BODIPY lipid droplet fluorescence, 18-24 h; for cell number change: measured here: cell count max response, cells fed with added oleic acid
Procedure, shortened: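 Laser-scanning cytometry quantifies lipid droplet accumulation (500–530 nm total intensity; droplet/cell object ratio) in oleic acid-fed (400 uM added) Drosophila S3 cells treated with a concentration series. 20 uM Triacsin C defined 100% inhibition.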

[1] = measured here: cell number channel AC50, cells fed with added oleic acid
[2] = measured here: lipid fluorescence (Fed channel) AC50, cells fed with added oleic acid

SMILES	cell number change [%]	AC50 [1]	AC50 [2]
O=S(=O)(NC1CCCCC1)c1cccc2nsnc12	31.5	32.6 µM [rising, partial curve, poor fit]	–
COc1cccc(Cn2c(N)c(C#N)c3nc4ccccc4nc32)c1OC	-37	6.51 µM [falling, partial curve, poor fit]	32.6 µM [falling, single point]
O=C(NCc1ccncc1)c1cccc(S(=O)(=O)NCc2ccccc2)c1	20	–	6.51 µM [rising, full curve, poor fit]
CCCOc1ccccc1NC(=O)c1c(-c2ccccc2)noc1C	–	–	0.731 µM [falling, single point]
COc1cccc(OC)c1C(=O)Nc1ccc(N2CCN(C(=O)c3cccs3)CC2)cc1	-12.2	–	1.84 µM [rising, partial curve]
Cc1ccc(OCC(=O)N(Cc2cccs2)C2CCS(=O)(=O)C2)cc1 (centres undefined)	-3.98	0.164 µM [rising, full curve, poor fit]	0.58 µM [rising, full curve, poor fit]
COc1ccccc1C(=O)Nc1ccc2c(c1)CCCN2C(=O)c1ccccc1	-4.03	–	7.31 µM [falling, partial curve]
Cc1ccc(S(=O)(=O)N2CCN(c3ccccc3)CC2)c(C)c1	–	–	0.731 µM [falling, single point]
O=C(NCCCN1CCc2ccccc2C1)C1CCN(c2nnc(-n3cccc3)s2)CC1	0.801	–	0.0411 µM [rising, full curve, poor fit]
c1coc(CN=C2NC(=NCc3ccco3)c3ccccc32)c1	-20.3	–	0.82 µM [rising, partial curve, poor fit]
CCOC(=O)N1C(=O)C2(CCCCC2)N(c2ccccc2Cl)C1=S	-66.7	29.1 µM [falling, single point]	–
COc1ccc2[nH]c3c(c2c1)CCN1C(=O)N([C@@H](C)C(=O)NC2CC2)C(=O)[C@]31C	-4.53	–	29.1 µM [falling, single point]
COC(=O)c1cc2ccsc2n1CC(=O)N(C)c1ccccc1	116	–	–
COC(=O)c1ccc(S(=O)(=O)N2Cc3ccccc3C2)cc1	-27.7	–	–
C=CCn1c(CNC(=O)c2ccco2)nnc1SCC(=O)c1ccc(F)cc1	-14.5	–	–
Cc1ccc(CNC(=O)/C=C/c2ccc(S(=O)(=O)N3CCOCC3)cc2)cc1	20.3	–	1.64 µM [rising, full curve, poor fit]
COc1ccc(CC(=O)O/N=C(\N)c2ccccn2)cc1OC	-7.8	–	29.1 µM [rising, single point]
O=C(NC1CC1)C1CCN(C2CCN(C(=O)c3c(F)cccc3Cl)CC2)CC1	8.4	–	0.461 µM [falling, single point]
CCc1nn2c(=O)cc(CSc3nc(C)cc(=O)[nH]3)nc2s1	18.4	–	29.1 µM [rising, single point]
CCCCN(C(=O)c1ccc([N+](=O)[O-])o1)c1c(N)n(CCCC)c(=O)[nH]c1=O	-15	5.17 µM [falling, single point]	6.51 µM [falling, single point]

An excerpt of these results, with bars between the fields:
SMILES | cell number change [%] | AC50 [1] | AC50 [2]
O=S(=O)(NC1CCCCC1)c1cccc2nsnc12 | 31.5 | 32.6 µM [rising, partial curve, poor fit] | –
O=C(NCc1ccncc1)c1cccc(S(=O)(=O)NCc2ccccc2)c1 | 20 | – | 6.51 µM [rising, full curve, poor fit]

More records.

SMILES	cell number change [%]	AC50 [1]	AC50 [2]
OC(CSc1ccc(F)cc1)CN1CCN(c2ccccc2)CC1 (centres undefined)	-37.6	0.0058 µM [falling, full curve, poor fit]	–
Cc1noc(C(=O)Nc2cccnc2)c1Cl	3.03	–	11.6 µM [rising, partial curve, poor fit]
Cc1ccc(-c2cc(-c3ccccc3C)[nH]n2)c(O)c1	-62.4	4.11 µM [falling, partial curve]	4.61 µM [falling, partial curve]
Cc1c(Cl)cccc1NC(=O)c1cccnc1	-1.84	–	29.1 µM [rising, single point]
O=C(N/N=C/C=C/c1ccco1)c1cccnc1	-4.18	0.517 µM [falling, full curve, poor fit]	–
Cc1nc2ccccc2c(N)c1C(=O)/C=C/c1ccccc1	–	–	18.4 µM [falling, partial curve]
CCc1c(C)c2cc(Cl)c(O)c(CN3CCCC3)c2oc1=O	36.9	–	29.1 µM [rising, single point]
O=c1[nH]c(NCc2ccco2)nnc1Cc1ccccc1Cl	70.1	18.4 µM [rising, single point]	29.1 µM [rising, single point]
O=C(CCC(=O)NC1CCCCCC1)Nc1nnc(C(F)(F)F)s1	3.14	–	–
C=CCn1c(SCC(=O)N2CCCCC2)nc(O)cc1=O	–	–	29.1 µM [falling, single point]
Cc1ccc(-c2nn(C)c(=O)c3ccccc23)cc1S(=O)(=O)NCCN1CCOCC1	–	0.366 µM [rising, single point]	–
CC(C)(C)C(=O)Cn1c(=N)n(Cc2ccccc2Cl)c2ccccc21	59.4	13 µM [rising, partial curve]	13 µM [rising, partial curve]
O=C(COc1ccc(S(=O)(=O)NCc2ccccc2)cc1Cl)NCc1ccccn1	-2.63	–	35.5 µM [rising, single point]
COC(=O)c1c(-c2ccco2)csc1NC(=O)C1CC=CCC1C(=O)O (centres undefined)	–	–	0.092 µM [falling, full curve, poor fit]
CC(C)Cc1nc2oc3c(NCC4CCCO4)ncnc3c2c2c1CCC2 (centres undefined)	-1.3	–	0.291 µM [rising, full curve]
Cc1ccc(S(=O)(=O)CCC(=O)OCC(=O)NNC(=O)c2ccc([N+](=O)[O-])cc2)cc1	4.54	–	0.00517 µM [falling, full curve, poor fit]
Cc1ccc(C(=O)Nc2ccncc2)cc1[N+](=O)[O-]	-20.7	–	–
COC(=O)c1ccc(CNC(=O)COc2ccccc2Br)o1	110	18.4 µM [rising, partial curve]	–
CC1CN(C(=O)c2cc3cc(Cl)ccc3[nH]2)CC(C)O1 (centres undefined)	48.6	1.84 µM [rising, full curve]	–
Cc1ccc(NC(=O)Cn2ccc(=O)[nH]c2=O)cc1	11.8	7.31 µM [rising, single point]	–

Reprinted at random: two entries already listed.
SMILES	cell number change [%]	AC50 [1]	AC50 [2]
Cc1ccc(-c2cc(-c3ccccc3C)[nH]n2)c(O)c1	-62.4	4.11 µM [falling, partial curve]	4.61 µM [falling, partial curve]
Cc1c(Cl)cccc1NC(=O)c1cccnc1	-1.84	–	29.1 µM [rising, single point]

(more compounds)

SMILES	cell number change [%]	AC50 [1]	AC50 [2]
Cc1sc(NC(=O)c2oc3ccccc3c2C)c(C#N)c1C	–	–	0.13 µM [rising, full curve, poor fit]
CCn1c(CSc2nc3ccccc3s2)nnc1SCC(=O)NCC(=O)OC	–	–	29.1 µM [falling, single point]
Cc1ccc(CN(C(=O)Cc2cccs2)C(C(=O)NC2CCCC2)c2ccncc2)cc1 (centres undefined)	15.2	–	4.11 µM [rising, single point]
CCN1CCc2nc3ccccc3c(C(=O)Nc3ccc(C#N)cc3)c2C1	4.34	–	–
CCn1cc(Cl)c(C(=O)Nc2cc(C(=O)OC)cc(C(=O)OC)c2)n1	12.3	–	0.00461 µM [rising, full curve, poor fit]
COc1ccc(S(=O)(=O)N(C)c2ccc(C(=O)N3CCN(c4ccccc4)CC3)cc2)cc1OC	-28.5	–	29.1 µM [falling, single point]
NS(=O)(=O)c1ccc(NCc2cc(Cl)ccc2OCc2ccccc2F)cc1	14.2	–	29.1 µM [rising, partial curve]
O=[N+]([O-])c1ccc(Oc2ccc(S(=O)(=O)N3CCCCC3)cc2)cc1	9.1	3.66 µM [falling, single point]	–
Cc1nnc(SCC(=O)Nc2ccc(F)cc2F)n(N)c1=O	10.6	–	29.1 µM [rising, single point]
CC(C)c1cc(C(F)(F)F)n2nc(C(=O)Nc3ccc4c(c3)OCO4)cc2n1	-9.57	–	13 µM [rising, partial curve]
NC(=O)C1CCN(c2nc(-c3ccccc3)nc3ccccc23)CC1	–	2.59 µM [rising, partial curve]	2.91 µM [rising, partial curve]
Cc1ccc(/C=N/n2c(C3CCCCC3)n[nH]c2=S)s1	-31.1	23.1 µM [falling, single point]	–
Cc1ccc(/C=C(\NC(=O)c2ccc(C)cc2)c2nc(=S)[nH][nH]2)cc1	-63.3	25.9 µM [falling, partial curve]	23.1 µM [falling, partial curve]
CCN(CC)c1ccc(/C=N\NC(=O)c2cccc3cc[nH]c23)cc1	11.3	–	–
CC1=CC(=C2C(=O)c3ccccc3C2=O)C=C(C)O1	33.1	18.4 µM [rising, single point]	29.1 µM [rising, single point]
CCN(CC(=O)Nc1ccc2c(c1)OCCO2)C(=O)COc1ccc(C)cc1	27.3	–	7.31 µM [rising, partial curve, poor fit]
CCC(=O)N1CCc2cc(S(=O)(=O)NCCC(=O)NCc3ccc(F)cc3)ccc21	17.9	7.31 µM [rising, single point]	–
COc1ccc(Cl)cc1NC(=O)CN(C)C(=O)Cc1ccc(-c2ccccc2)cc1	-42.6	4.11 µM [falling, partial curve]	6.51 µM [falling, partial curve]
O=S(=O)(c1cccs1)N1CCCc2cccc(O)c21	71.4	29.1 µM [rising, single point]	–
O=C(CN(C(=O)c1csnn1)c1ccccc1Cl)NC1CCCC1	-18.3	–	0.58 µM [falling, single point]
